Among the data in PubChem BioAssay AID1347423 (Functional Genomics Laboratory (NCATS/FGL), 2020) are z-score values, retold here.

Among all 52,000 sequences or so, about 210 (0.4%) were called active.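 How the source made its calls: active means gene whose silencing raises cell survival under the drug, median off-target-corrected z-score across its silencing RNAs 2 or more; inactive means the rest.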 The list shows a part of the results.

A short description of this experiment: Resistance to Poly (ADP-Ribose) Polymerase inhibitor: Gene Identification via Genome-wide siRNA Screen. Conditions: mouse BRCA2 R2336H ES cells, olaparib, CellTiter-Glo viability; stronger effect = higher value. In outline: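 Mouse BRCA2 R2336H ES cells were reverse-transfected with siRNA (20 nM final), treated at 48 h with 500 nM olaparib, and read by CellTiter-Glo after 72 h. Scores: MAD-based z per siRNA, median per gene, seed off-target correction.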
Consider GGCCGUUCAUUUCCUCAUCTT against Galr2, for which the z-score is inactive: 0.144. “GCUAUGAAGAAAAAUCGGATT against 4832428D23Rik”: the z-score is inactive: 0.793. Consider CCAGAGUCUUUGGUAAUGCTT against Krtap3-3, for which the z-score is inactive: -0.438. Then GGCUGAUGACACUUACACATT against V1rg11, with inactive: 1.02; and CCUGCCUAGAUGUUUCAGCTT against Ifna13, with inactive: 0.611. With GGGUGAAAGAAAGAAAGAATT against Plp1, the z-score is inactive: -0.904.

Regarding GGCUGGCUUUGAACUCAAUTT against Zfp36, the z-score is inactive: -1.07. To “GGAAGACUGUAACACCAUCTT against 4921520G13Rik” belongs inactive: 0.402.

CCUCUUUAGUCCUCUAAAATT against Rab15: the z-score is inactive: 0.275. To GCAUGAUGACAGGAAGGACTT against Olfr527 belongs inactive: 0.0208. To GGCCAUAAAGUUAACAACATT against Tbx19 belongs inactive: -0.252; to “GGAAAUUUUGAACCUGACATT against D12Ertd771e”, inactive: -0.773; to GGAUGCGCUGAUAUCAGUATT against Olfr370, inactive: -0.821. To GGAAUCCUCUAAAUGACCUTT against V1rd22 belongs inactive: 1.74. For GAGCUAUGUUCUUGGAUGATT against V1ra4, the z-score is inactive: -0.0592.

For GGUGCUAAGUUCAAAGUCGTT against Pdcd11, the z-score was inactive: 0.421. To GGGAGGUGCAGAUAGGAUUTT against Csrp1 belongs inactive: 1.55; to “GAUGCACACGUGGGAAGACTT against 2210021J22Rik”, inactive: -1.92. Take GGCUCUGAAUGUCACAACCTT against Il2rb: the z-score is inactive: 0.572. To GGGACCACUGGACAUUGAATT against Cxadr belongs inactive: -1.45; to GGAGAAAGAAAUCCUUCUGTT against Bag2, inactive: 0.213; to GGCAAACAUUUCAAAUACATT against Tgm4, inactive: -1.17. Regarding GGAAGUCUCUGUACAUCUUTT against Chuk, the z-score was inactive: -1.22. Consider GGGCUUCUUCCUCGUCUCUTT against Indo, for which the z-score was inactive: 0.313. Then CGGUCAUUUGAAGUAGGAATT against Mum1, with inactive: -0.378. Then GCCCAGAUGGGUUAAUUUCTT against Fzd7, with inactive: 0.746; and GCGUGUCAGGGAGUAUUACTT against Igbp1b, with inactive: 1.09; and CCAGAUGGGCCCAAUGCAUTT against Ccl7, with inactive: -1.18. Then CCUUUAUUUCUGUGAAUCUTT against Olfr1467, with inactive: 1.31; and GGUCGGAACUCAGUUUAUCTT against Abcg2, with inactive: 0.342; and CGGUUAUUGUACCUAAAGCTT against Olfr827, with inactive: 0.523. With “GGACCAUAAAUGAGACCCATT against Sulf2-pending”, the z-score is inactive: -0.0958.

Take GCUGAAAGUAUUCAUGUAATT against Sec13l1: the z-score was inactive: -2.96. Then GGGAAACAGAAGUAUCUAUTT against Ar, with inactive: -0.616.

On to GGAAGAAAUGGACACCAGATT against Slc12a6, for which the z-score is inactive: 2.16. Consider CGGACAUAGUCCAUCAUUCTT against Aig1, for which the z-score was inactive: 1.65. Then GCGUAAUUCCAGCAGAUGUTT against Mepe, with inactive: -1.4; and CCUACAGUAUGUGGCAGAUTT against Grb7, with inactive: -1.69; and GGACAAUUUUGACGAGAUGTT against Tubg1, with inactive: -1.68. To GGAUGUAGAGAAAAUGAUCTT against LOC13909 belongs inactive: -0.291. Then CCCUCAUCAAGGGCAUAGATT against Gpd1l, with inactive: -1.39; and GCAAUCAUUUCUUCAUCUATT against Olfr148, with inactive: 1.54. GCACAGUACCAUAACGGCUTT against Pbef1: the z-score is inactive: -1.21. As to GCCUCUAUAUCUUUCACUGTT against Olfr1209, the z-score was inactive: -0.276. To GGAAAUGCCUAAUUUUCACTT against Snapc4 belongs inactive: 0.708; to CCGAAUAGUAGAUAUUAGATT against Zbtb1, inactive: 0.12; to GGUCAUAUCUCACCUAAGUTT against Nxph3, inactive: 0.179.

Consider CCACCUCCAUCGAUGUUAUTT against Pamci, for which the z-score was inactive: -2.93. For the sequence GGGAGAUUAAUCAAGAACUTT against Ccnc, the z-score is inactive: 0.109. To CCGGGUCAGGACAAUUCAUTT against Hsd17b1 belongs active: 1.29; to CGUGUUGAUAACUUUAACGTT against Abca9, inactive: 0.739; to GGGCCUUUAUGAGUCACACTT against H2-Aa, inactive: 0.0743.

GAAGCCUAAUCCCUUAAUCTT against Oas1g: the z-score is inactive: -0.581. On to GCCACGUGAUAGUAAUAAATT against Psmd12, for which the z-score is inactive: 0.694.

For GCUUCUCAGACAAAUAUGGTT against S3-12, the z-score was inactive: 0.617.

GGUUAUUUCUGAAAUGUGCTT against Fbxl4: the z-score is inactive: 0.381.

For the sequence GGAAACAUGGGUUUAUUUGTT against Bche, the z-score was inactive: 0.142.

On to CCCACAGUUGCAAAUUGUGTT against Olfr804, for which the z-score is inactive: 0.137. Then GGGUACAACUCUUUGAAGATT against Mnat1, with inactive: 0.446; and GGUGGACAACCAGUUCUACTT against Mapk10, with inactive: -0.405. As for CCAAUGGUGUAAUUAGAAATT against Olfr571, the z-score is inactive: 0.143. “GGAAAAAAUCAAGAGUGAATT against D0HXS9928E”: the z-score is inactive: -0.671. Regarding GGUCAAAUCUCGACAAAUCTT against Ptprm, the z-score is inactive: 0.462. Then “CGAUGACAGGAAAGUUCGATT against 9130211I03Rik”, with inactive: 0.0266.

In the case of GGCAUCCUUGUUCACAUCCTT against Zfy1, the z-score was inactive: 1. Then GGAGAACACAAAAUCAUGGTT against Xrn2, with inactive: 3.03; and GGCCUCACAAAAGAACACCTT against Nppb, with inactive: -0.13; and “GGUCUCUGUCUCCAAGAAATT against 2810012G03Rik”, with inactive: -0.0984.
